# Measurements published in paper PMC12808120.
# Protein sequences, listed by entry. Tags and fused reporters are not part of them.
# UniProt O00425, whole entry: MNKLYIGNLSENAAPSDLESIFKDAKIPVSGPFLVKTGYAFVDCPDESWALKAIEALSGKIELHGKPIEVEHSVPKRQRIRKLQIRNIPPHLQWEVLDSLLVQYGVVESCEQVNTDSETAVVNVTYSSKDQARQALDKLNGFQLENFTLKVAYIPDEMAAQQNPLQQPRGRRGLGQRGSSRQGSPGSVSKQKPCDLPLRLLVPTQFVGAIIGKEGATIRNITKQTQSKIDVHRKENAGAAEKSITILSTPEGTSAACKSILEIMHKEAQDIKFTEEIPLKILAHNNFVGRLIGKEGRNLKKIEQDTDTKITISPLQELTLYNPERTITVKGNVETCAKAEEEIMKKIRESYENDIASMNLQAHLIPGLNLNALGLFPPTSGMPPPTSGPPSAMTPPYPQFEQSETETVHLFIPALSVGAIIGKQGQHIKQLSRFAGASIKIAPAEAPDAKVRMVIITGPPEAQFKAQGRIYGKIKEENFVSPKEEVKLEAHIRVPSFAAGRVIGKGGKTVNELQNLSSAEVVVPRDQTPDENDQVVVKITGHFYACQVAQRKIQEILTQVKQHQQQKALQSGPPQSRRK
# Construct, isoform or probe ends are uncertain for at least one entry. Where cells or extracts were used, other partners may take part. Weaker means in comparison with the reference protein, sequence or condition of that experiment.
# Target: IGF2BP3 (endogenous, cell extract) (Homo sapiens) (UniProt O00425)
# Assay: pull-down, mass spectrometry
# Details: quantified on both RNAs, significantly enriched on FMR1-99CGG over 23CGG; 3' biotin; pull-down: lysate mixed 1:1 with 2x TENT (100 mM Tris pH 7.8, 2 mM EDTA, 500 mM NaCl, 0.1% Tween), 21 C; protein in an extract; label: biotin
sequence,measurement,value
CGGCGGCGGCGGCGGCGGCGGCGGCGGCGGCGGCGGCGGCGGCGGCGGCGGCGGCGGCGGCGGCGGCGG [23CGG],binding result,binds more weakly
